# Measurements published in patent publication US10633374B2, “Small molecule based antibody-recruiting compounds for cancer treatment” (YALE UNIVERSITY, priority 2015, dated 2020).
# The chains behind the UniProt entries cited, without tags or fusion partners. Residues count along the entry.
# UniProt Q03405, 23-305: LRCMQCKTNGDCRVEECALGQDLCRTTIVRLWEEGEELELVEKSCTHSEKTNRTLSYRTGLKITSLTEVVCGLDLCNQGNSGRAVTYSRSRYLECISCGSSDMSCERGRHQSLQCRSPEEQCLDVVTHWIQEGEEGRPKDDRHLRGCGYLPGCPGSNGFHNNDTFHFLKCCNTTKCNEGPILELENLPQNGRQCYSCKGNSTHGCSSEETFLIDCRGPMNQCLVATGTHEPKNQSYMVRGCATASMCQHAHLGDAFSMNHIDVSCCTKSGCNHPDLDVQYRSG
# For at least one compound, name, drawing or mass did not settle the structure.
# Target: T1, uPAR (uPA binding site) (Homo sapiens, UniProt Q03405)
# T1 construct: purchased R&D systems
# Experiment: Competitive ELISA uPAR binding assay (immobilized urokinase)
# Details: degradation product vs ARM-U2
# Experimental: The affinity of ARM-U2 derivatives differing in both the length of the DNP-linker substituted at position 2 of ring C and the display of negative charge density (FIG. 8, Table 1) for uPAR were assayed using a competitive ELISA binding assay. The assay involves the immobilization of urokinase, a natural high affinity ligand for uPAR followed by the addition of a fixed concentration of recombinant uPAR protein and increasing concentrations of ARM-U2 which competes with urokinase for binding to the uPA binding site of uPAR. Following several washing steps, the amount of uPAR bound is quantified by a biotinylated anti-uPAR antibody and avidin-HRP and can be fit to a competitive binding model allowing for the extraction of the uPAR/ARM-U2 Kd.
# All ARM-U2 derivatives were assessed for their ability to bind selectively to recombinant uPAR in vitro using a competitive ELISA binding assay. […] Selective binding to uPAR by ARM-U2 at the uPA binding site competes with uPAR-uPA binding which is required for a positive UV 450 nm absorbance signal. Increasing concentrations of ARM-U2 displace increasing amounts of uPAR from uPA which is detected by anti-uPAR/biotin labeled antibodies followed by avidin-HRP. […]
smiles,measurement,value
Nc1c(N2CCCC(C(=O)NCCCOCCOCCOCCCNc3ccc([N+](=O)[O-])cc3[N+](=O)[O-])C2)cc(Nc2ccc(S(=O)(=O)O)cc2S(=O)(=O)O)c2c1C(=O)c1ccccc1C2=O (stereo not shown) [compound 23],uPAR binding affinity relative to ARM-U2,no change in uPAR binding affinity
